Test results published in patent publication US20160159919A1.
Where a chain is given by its changes, count along the chain named. No constants are given. Whether binding was seen depends on the method and setting. Some entries that bind do so weakly or less than the wild type.

Chains of the proteins cited; added tags and fusions are not shown. Lines headed by an entry give the natural chain unless they say otherwise; changes in a name come on top.
UniProt O14944: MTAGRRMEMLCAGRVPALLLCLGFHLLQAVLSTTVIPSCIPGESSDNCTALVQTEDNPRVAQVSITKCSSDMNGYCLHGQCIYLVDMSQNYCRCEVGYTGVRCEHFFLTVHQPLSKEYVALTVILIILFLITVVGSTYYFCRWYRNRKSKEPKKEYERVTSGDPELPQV

B1: H150-G1d/L21-k (antibody, human IgG1, kappa, V domains shown)
VH: QDQLVQSGAEVKKPGASVKVSCKASGFNIKDTYIQWVRQAPGQGLEWMGRIDPLRRNTKYREKFEGRVTITADTSTNTAYMELSSLRSEDTAVYYCVRSGRSFDFWGQGTLVTVSS
VL: DIQMTQSPSSLSASVGDRVTITCQASQDIHKYIAWYQQKPGQAPRLLIQYTSTLQPGVPSRFSGSGSGTDYTFTISSLQPEDIATYYCLQYDNLRTFGGGTKVEIER
B2: H154-G1d/L48-k (antibody, human IgG1, kappa, V domains shown)
VH: B1 VH with S102E
VL: B1 VL with Q24K, L94R, E106K
B3: H154-G1d/LB-k (antibody, human IgG1, kappa, V domains shown)
VH: B1 VH with S102E
VL: B1 VL with Q24K, E106K
B4: H166-G1d/LB-k (antibody, human IgG1, kappa, V domains shown)
VH: B1 VH with N57Q, R101T
VL: B1 VL with Q24K, E106K
B5: H168-G1d/LB-k (antibody, human IgG1, kappa, V domains shown)
VH: B1 VH with N57S, R101T
VL: B1 VL with Q24K, E106K
B6: H183-G1d/L21-k (antibody, human IgG1, kappa, V domains shown)
VH: B1 VH with N57Q, S102E
VL: B1 VL
B7: H183-G1d/L48-k (antibody, human IgG1, kappa, V domains shown)
VH: B1 VH with N57Q, S102E
VL: B1 VL with Q24K, L94R, E106K
B8: H183-G1d/LB-k (antibody, human IgG1, kappa, V domains shown)
VH: B1 VH with N57Q, S102E
VL: B1 VL with Q24K, E106K
B9: H193-G1d/LB-k (antibody, human IgG1, kappa, V domains shown)
VH: B1 VH with R56E, N57Q
VL: B1 VL with Q24K, E106K
B10: H206-G1d/L53-k (antibody, human IgG1, kappa, V domains shown)
VH: B1 VH with K13N, N57Q, S102E
VL: B1 VL with Q24R, E106K
B11: H206-G1d/L73-k (antibody, human IgG1, kappa, V domains shown)
VH: B1 VH with K13N, N57Q, S102E
VL: B1 VL with Q24R, D92E, N93Q, E106K
B12: H213-G1d/L53-k (antibody, human IgG1, kappa, V domains shown)
VH: B1 VH with R56H, N57Q, S102E
VL: B1 VL with Q24R, E106K
B13: H240-G1d/L53-k (antibody, human IgG1, kappa, V domains shown)
VH: B1 VH with R56K, N57Q, S102E, F105Y
VL: B1 VL with Q24R, E106K
B14: H240-G1d/L73-k (antibody, human IgG1, kappa, V domains shown)
VH: B1 VH with R56K, N57Q, S102E, F105Y
VL: B1 VL with Q24R, D92E, N93Q, E106K

Target: Human EREG (Biacore analyte) (human) (UniProt O14944)
Test: SPR (Biacore), FIG. 3

| Binder | binding |
| --- | --- |
| B1 | binds |
| B2 | binds |
| B3 | binds |
| B4 | binds |
| B5 | binds |
| B6 | binds |
| B7 | binds |
| B8 | binds |
| B9 | binds |
| B10 | binds |
| B11 | binds |
| B12 | binds |
| B13 | binds |
| B14 | binds |

Target: Human EREG (Biacore analyte) (human) (UniProt O14944)
Test: SPR (Biacore T100, Reference Example 24): antibody captured by Protein A, human EREG as analyte; bar = KD of the antibody / KD of chimeric EP27

| Binder | binding |
| --- | --- |
| B1 | binds |
| B2 | binds |
| B3 | binds |
| B4 | binds |
| B5 | binds |
| B6 | binds |
| B7 | binds |
| B8 | binds |
| B9 | binds |

Target: cynomolgus EREG (Biacore analyte) (cynomolgus monkey)
Test: SPR (Biacore), FIG. 4

| Binder | binding |
| --- | --- |
| B1 | binds |
| B2 | binds |
| B3 | binds |
| B4 | binds |
| B5 | binds |
| B6 | binds |
| B7 | binds |
| B8 | binds |
| B9 | binds |
| B10 | binds |
| B11 | binds |
| B13 | binds |
| B14 | binds |

Target: cynomolgus EREG (Biacore analyte) (cynomolgus monkey)
Test: SPR (Biacore T100, Reference Example 24): antibody captured by Protein A, cynomolgus and human EREG as analytes; bar = KD for monkey Epiregulin / KD for human Epiregulin

| Binder | binding |
| --- | --- |
| B1 | binds |
| B2 | binds |
| B3 | binds |
| B4 | binds |
| B5 | binds |
| B6 | binds |
| B7 | binds |
| B8 | binds |
| B9 | binds |
